Reference: publication PMC8831594
No constants are given. Whether binding was seen depends on the method and setting. In cells and extracts the contact can be indirect. For some of these results: A result given as binding can be weak or reduced; the word gives no strength. For some of these results: Sequences can lack the tags named with a protein. Each block holds one molecule with its values, some of them ahead of it.

Columns and labels:
[1] = target: T1, His-GST-Lap2α-CTD (C-terminal domain of Lap2α, residues 459-693) (mouse) (UniProt Q61033); assay: pull-down; His-GST or His-GST-Lap2α-CTD from E. coli lysates immobilised on glutathione agarose and washed (500 mM NaCl); 1.5 µM purified His-MRTF-A, 25 mM Tris-HCl pH 7.5, 150 mM NaCl, 1 mM DTT, overnight at 4 °C; anti-His Western blot; both purified
T1 sequence: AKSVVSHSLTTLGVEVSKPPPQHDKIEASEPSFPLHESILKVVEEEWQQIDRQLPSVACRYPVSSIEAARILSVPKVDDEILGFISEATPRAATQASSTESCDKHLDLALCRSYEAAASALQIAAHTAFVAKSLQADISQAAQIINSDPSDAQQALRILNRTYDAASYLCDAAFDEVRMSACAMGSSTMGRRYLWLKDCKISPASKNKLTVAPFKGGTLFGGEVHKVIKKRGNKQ

MRTF-A-ΔLZ-2HA (mouse) = assay: co-IP; NIH 3T3 transfected with HA/FLAG-tagged constructs (3 µg each plasmid), 24 h; IP buffer 0.5% Triton X-100, 50 mM Tris-HCl pH 7.5, 150 mM NaCl; anti-HA or anti-FLAG M2 affinity gel, 3 h at 4 °C; Western blot
[2] = target: MRTF-A C471 (MRTF-A deletion construct without C-terminus) (mouse); assay: as above
MRTF-A-ΔQ-2HA (mouse) = assay: as above
[3] = target: MRTF-A with deletion of the B1 domain (mouse); assay: as above
[4] = target: MRTF-A-ΔN-2HA (amino acids 170-1021) (mouse); assay: as above
[5] = target: RPEL-2HA (N-terminal RPEL domain of MRTF-A, amino acids 1-204) (mouse); assay: as above

binding [1]: binds
Molecule: His-MRTF-A (recombinant mouse MRTF-A)

binding (MRTF-A-ΔLZ-2HA (mouse)): binds
binding [2]: binds
binding (MRTF-A-ΔQ-2HA (mouse)): binds
binding [3]: binds
binding [4]: binds
binding [5]: no binding
B1: Lap2α (partner of the MRTF-A deletion and mutant constructs in the co-IPs of Fig. 6e-i) (protein, UniProt Q61033-1 1-693)
chain: MPEFLEDPSVLTKDKLKSELVANNVTLPAGEQRKDVYVQLYLQHLTARNRPPLAAGANSKGPPDFSSDEEREPTPVLGSGASVGRGRGAVGRKATKKTDKPRLEDKDDLDVTELSNEELLDQLVRYGVNPGPIVGTTRKLYEKKLLKLREQGTESRSSTPLPTVSSSAENTRQNGSNDSDRYSDNDEGKKKEHKKVKSARDCVPFSELASTPSGAFFQGISFPEISTRPPLGRTELQAAKKVQTTKRDPPRETCTDTALPGKGQTHKLAPGRSLFIPSESSYDRCVEKSSSPSSQREFAARLVSAAASPSLIRETTTTYSKDIVENICRGGKSRAQPLRAEEPGVSDQSVFSSEREVLQESERSQVISPPLAQAIRDYVNSLLVQGGVGSLPGTSDSVPTLDVENICKRLSQSSYQDSESLSPPRKVPRLSEKPARGGDSGSCVAFQNTPGSEHRSSFAKSVVSHSLTTLGVEVSKPPPQHDKIEASEPSFPLHESILKVVEEEWQQIDRQLPSVACRYPVSSIEAARILSVPKVDDEILGFISEATPRAATQASSTESCDKHLDLALCRSYEAAASALQIAAHTAFVAKSLQADISQAAQIINSDPSDAQQALRILNRTYDAASYLCDAAFDEVRMSACAMGSSTMGRRYLWLKDCKISPASKNKLTVAPFKGGTLFGGEVHKVIKKRGNKQ
